Reference: PubChem BioAssay AID1347075 (National Center for Advancing Translational Sciences (NCATS), 2019)
Hit rate of the full screen: of about 400,000 compounds, about 5,500 (1.4%) were called active. The inconclusive results got no clear call from the source; some entries with a clear call stand among them for comparison. The call rests on the fitted dose curve; in most records, active means well fitted cell-killing curve with a large enough effect; inconclusive means small, poorly fitted or top-dose-only effect, or effect the other way; inactive means flat fitted curve, though single readings scatter. Potencies beside an inconclusive call are fits to weak or partial responses and may not hold up.

Test: qHTS assay for MDR1-selective chemotherapeutics: Primary screen using the parental adenocarcinoma cell KB-3-1; further: nearly all actives have a fitted effect of over 60% in size
Conditions: KB-3-1 viability, CellTiter-Glo ATP luminescence, 72 h; activity change, negative = cytotoxic: at 46.1 µM (top of the series)
Summary of the method: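 Cells are dispensed, compounds pinned in, plates held at 37 °C for 72 h, then CellTiter-Glo is added and luminescence read after 10 minutes. Cell line: parental KB-3-1 in phenol-red-free DMEM, 10% FBS.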
On the % scale 0 is the no-effect control and ±100 the full control effect; potency means the concentration at half of the fitted maximal effect.

Q: With CC12CCC(O)CC1CCC1C2CCC2(C)C(C3=CC(=O)OC3)C(O)CC12O (stereo not drawn) as the molecule, how does the Potency read?
A: inconclusive: 5.17 µM [cytotoxic, full curve]

Q: Which “activity change, negative = cytotoxic” value does the source give for CCOc1ccc(N=Cc2c(O)n(Cc3ccccc3)c(=S)[nH]c2=O)cc1 here?
A: inactive: 1.67%

Q: Which Potency does the source give for COc1cc([C@@H]2c3cc4c(cc3[C@@H](OC)[C@H]3COC(=O)[C@H]23)OCO4)cc(OC)c1O here?
A: inconclusive: 0.58 µM [cytotoxic, full curve, poor fit]

Q: Which Potency does the source give for CC1COC2N=C(N[N+](=O)[O-])NC2O1 (stereo not drawn) here?
A: inconclusive: 0.58 µM [rising, partial curve, poor fit]

Q: With O=C(c1ccc(Cl)cc1)C1CCCN(Cc2ccc3nonc3c2)C1 (stereo not drawn) as the molecule, how does the “activity change, negative = cytotoxic” value read?
A: inactive: 0%

Q: Which Potency does the source give for CNC(=O)Nc1ccc(C(=O)N/N=C\C23CC[C@@H](O)CC2(O)CC[C@@H]2[C@@H]3CCC3(C)C(C4=CC(=O)OC4)CCC23O)cc1 (stereo partly drawn) here?
A: inconclusive: 25.9 µM [cytotoxic, single point]

Q: For COc1ccc(CN2CCN(C(=O)COc3ccccc3)CC2)c(OC)c1, which Potency is on record?
A: inconclusive: 8.2 µM [cytotoxic, partial curve, poor fit]

Q: Which Potency does the source give for N#CC1c2ccccc2-n2nncc2CN1Cc1cc(Cl)cc(Cl)c1 (stereo not drawn) here?
A: active: 5.8 µM

Q: For C=C1C(=O)O[C@@H]2C[C@@H](C)[C@@H]3C=CC(=O)[C@@]3(C)[C@@H](O)[C@H]12, which Potency is on record?
A: inconclusive: 2.91 µM [cytotoxic, partial curve, poor fit]

Q: With CC1(C(O)(C#CCN2CCCCC2)c2ccccc2)CCCC1 (stereo not drawn) as the molecule, how does the Potency read?
A: inconclusive: 20.6 µM [cytotoxic, partial curve]

Q: With C[N+]1(C)[C@@H]2CC[C@H]1CC(OC(=O)C(c1ccccc1)c1ccccc1)C2 (stereo partly drawn) as the molecule, how does the “activity change, negative = cytotoxic” value read?
A: inactive: -5.07%

Q: Which Potency does the source give for CCCCn1c(=O)c(C(=O)NC(C)c2ccccc2)c(O)c2ccccc21 (stereo not drawn) here?
A: inconclusive: 29.1 µM [cytotoxic, single point]

Q: With O=C(N/N=C/c1c(O)n(CCc2ccccc2)c(=O)[nH]c1=O)c1ccncc1 as the molecule, how does the Potency read?
A: inconclusive: 16.4 µM [rising, partial curve]

Q: Which Potency does the source give for Cc1ccccc1[N+](=O)[O-] here?
A: inconclusive: 4.11 µM [cytotoxic, full curve, poor fit]

Q: With CCCC/C(C)=C/[C@@H](NP(=O)(c1ccccc1)c1ccccc1)c1ccccc1 as the molecule, how does the Potency read?
A: inconclusive: 20.6 µM [cytotoxic, partial curve, poor fit]

Q: With CCC1(CC)C(=O)NC(=NCCc2c[nH]c3ccccc23)NC1=O as the molecule, how does the “activity change, negative = cytotoxic” value read?
A: inactive: 8.78%

Q: Which “activity change, negative = cytotoxic” value does the source give for COc1ccc(SCC2CN(C)CCC2c2ccc(F)cc2)cc1 (stereo not drawn) here?
A: inactive: -1.18%

Q: For O=C(NCC1=C(c2cccc3ccccc23)C[C@@H]2CC[C@H]1N2Cc1ccco1)c1ccncc1, which “activity change, negative = cytotoxic” value is on record?
A: inactive: -2.32%

Q: Which Potency does the source give for O=C1NCN(c2ccccc2)C12CCN(C(CCc1ccccc1)c1nnnn1Cc1ccccc1)CC2 (stereo not drawn) here?
A: inconclusive: 29.1 µM [cytotoxic, single point]

Q: With O=c1[nH]cnc2nc(-c3ccc(N(CCCl)CCCl)cc3)[nH]c12 as the molecule, how does the Potency read?
A: inconclusive: 0.0073 µM [cytotoxic, full curve, poor fit]

Q: With CC(=O)OCC12CC(OC(=O)CC(C)C)C(C)=CC1OC1C(O)C(OC(C)=O)C2(C)C12CO2 (stereo not drawn) as the molecule, how does the Potency read?
A: active: 0.0092 µM

Q: For CCN(CC)S(=O)(=O)c1cc(NC(=O)C(C)N2CC=C(c3ccccc3)CC2)ccc1C (stereo not drawn), which Potency is on record?
A: active: 20.6 µM

Q: Which Potency does the source give for O=C(Nc1ccccc1)OC1CN=C(N[N+](=O)[O-])NC1 (stereo not drawn) here?
A: inconclusive: 29.1 µM [rising, single point]

Q: With CCOC(=O)[C@]12Cc3ccccc3[C@H]1N(Cc1ccccc1)C(=O)c1cc(F)c(F)cc12 as the molecule, how does the Potency read?
A: active: 23.1 µM

Q: Which Potency does the source give for CCC(CO)Nc1ccc([N+](=O)[O-])c2cccnc12 (stereo not drawn) here?
A: inconclusive: 32.6 µM [cytotoxic, single point]

Q: With COC(=O)C1=C(c2ccc(-c3ccccc3)c(F)c2)C[C@@H]2CC[C@H]1N2C(=O)NCCc1ccccc1 as the molecule, how does the Potency read?
A: inconclusive: 23.1 µM [cytotoxic, single point]

Q: For O=c1[nH]c(=O)n(-c2cccc3ccccc23)c(O)c1/C=N/N1CCCCCC1, which Potency is on record?
A: inconclusive: 2.59 µM [cytotoxic, full curve]

Q: With Cc1cccc(Cn2cc(C=O)c3ccccc32)c1 as the molecule, how does the Potency read?
A: active: 18.4 µM

Q: For Cc1c(C(=O)c2cccc3ccccc23)c2cccc3c2n1[C@H](CN1CCOCC1)CO3, which Potency is on record?
A: inconclusive: 29.1 µM [cytotoxic, single point]

Q: For CC1=CC(O)C(O)C2(C)C1CC1OC(=O)CC3C(C)C(O)C(=O)C2C13CO (stereo not drawn), which Potency is on record?
A: active: 18.4 µM

Q: Which Potency does the source give for Cc1nn(Cc2ccccc2)c(C)c1C=C1C(=O)NC(=S)NC1=O here?
A: inconclusive: 14.6 µM [cytotoxic, partial curve]

Q: Which “activity change, negative = cytotoxic” value does the source give for O=C(CN1CCCC1)Nc1ccc(Cl)cc1C(=O)c1ccccc1 here?
A: inactive: 9.51%

Q: For CC(=O)N1N=C2C3CCN(CC3)C2C1c1ccc(C)cc1 (stereo not drawn), which Potency is on record?
A: inconclusive: 0.517 µM [rising, full curve]

Q: With CC/C(CC(c1ccccc1)c1c(O)c2ccccc2oc1=O)=N\NC(N)=S (stereo not drawn) as the molecule, how does the Potency read?
A: inconclusive: 10.3 µM [cytotoxic, partial curve, poor fit]

Q: With O=C1NC(=O)N(c2ccccc2F)C(=O)/C1=C/c1cn(CC(=O)N2CCOCC2)c2ccccc12 as the molecule, how does the “activity change, negative = cytotoxic” value read?
A: inactive: -2.13%

Q: Which Potency does the source give for COC(=O)C1=C(c2cccc(OCc3ccccc3)c2)C[C@@H]2CC[C@H]1N2C(=O)NCc1cccc(C(F)(F)F)c1 here?
A: inconclusive: 32.6 µM [cytotoxic, single point]

Q: For CC(C)(C)c1ccc(O)c(N=Cc2c(O)ccc3ccccc23)c1, which Potency is on record?
A: inconclusive: 25.9 µM [cytotoxic, partial curve, poor fit]

Q: With CC1(O)CCC2C3CCC4=CC(=O)CCC4=C3C=CC21C (stereo not drawn) as the molecule, how does the Potency read?
A: inconclusive: 8.2 µM [cytotoxic, partial curve, poor fit]

Q: With CCN1C(=O)CC(c2cccnc2)=Nc2ccccc21 as the molecule, how does the Potency read?
A: inconclusive: 25.9 µM [rising, single point]

Q: Which Potency does the source give for CCOC(=O)C1(CCOc2ccccc2)CCN(Cc2ccc(C)s2)CC1 here?
A: inconclusive: 29.1 µM [cytotoxic, single point]

Q: For CC1C2Cn3c(nc4ccccc43)C1N(C)O2 (stereo not drawn), which Potency is on record?
A: inconclusive: 0.0366 µM [rising, full curve]

Q: Which Potency does the source give for CC(=O)OC1(C)CC(C)C(=O)C(C(O)CC2CC(=O)NC(=O)C2)C1 (stereo not drawn) here?
A: inconclusive: 0.0073 µM [cytotoxic, full curve, poor fit]

Q: Which Potency does the source give for COc1ccc(/C=N\N=C(N)N)cc1 here?
A: inconclusive: 29.1 µM [cytotoxic, single point]

Q: For CC(C)c1ccc(O)c(CN2CCN(c3ccccc3)CC2)c1, which Potency is on record?
A: inconclusive: 29.1 µM [cytotoxic, single point]

Q: Which Potency does the source give for COC(=O)C1=C(c2ccc(-c3ccccc3)c(F)c2)C[C@@H]2CC[C@H]1N2C(=O)NCCO here?
A: inconclusive: 9.2 µM [cytotoxic, partial curve, poor fit]

Q: Which Potency does the source give for Cc1ccc(S(=O)(=O)N(C)CCCC(=O)N2CCN(c3ccccn3)CC2)cc1 here?
A: inconclusive: 32.6 µM [cytotoxic, partial curve, poor fit]

Q: With CC[C@@]1(O)C(=O)OCc2c1cc1n(c2=O)Cc2cc3ccccc3nc2-1 as the molecule, how does the Potency read?
A: inconclusive: 3.66 µM [cytotoxic, partial curve, poor fit]

Q: With S=P(NCCSCc1ccccc1)(N1CC1)N1CC1 as the molecule, how does the “activity change, negative = cytotoxic” value read?
A: inactive: -0.701%

Q: For COc1cccc(C(c2nnnn2-c2c(C)cccc2C)N2CCC(n3c(=O)[nH]c4ccccc43)CC2)c1OC (stereo not drawn), which Potency is on record?
A: inconclusive: 29.1 µM [cytotoxic, single point]

Q: With Cn1cccc1/C=C1\C(=O)NC(=O)N(Cc2ccccc2Cl)C1=O as the molecule, how does the Potency read?
A: inconclusive: 20.6 µM [cytotoxic, partial curve, poor fit]

Q: For N#CC(C#N)=C(N)c1cccnc1, which activity change, negative = cytotoxic is on record?
A: inconclusive: 0.719%

Q: For CCOC(=O)[C@]12Cc3cc(OC)ccc3[C@H]1N(C)C(=O)c1cc(OC)ccc12, which Potency is on record?
A: active: 3.66 µM

Q: Which Potency does the source give for CCOC(=O)C1=C(NC(=S)NC(=O)c2ccccc2)c2ccccc2CC12CCCC2 here?
A: inconclusive: 7.31 µM [cytotoxic, full curve, poor fit]

Q: For O=C1NCN(c2ccccc2)C12CCN(C(c1cccc3ccccc13)c1nnnn1C1CCCC1)CC2 (stereo not drawn), which Potency is on record?
A: inconclusive: 25.9 µM [cytotoxic, single point]

Q: Which Potency does the source give for Cc1cc(NC(=O)CCl)nn1C here?
A: active: 13 µM

Q: For CCCCn1c(=O)c(C(=O)NCc2ccc(Cl)cc2)c(O)c2ccccc21, which “activity change, negative = cytotoxic” value is on record?
A: inactive: -6.91%

Q: With Cc1cc([N+](=O)[O-])c2ccccc2[n+]1[O-] as the molecule, how does the Potency read?
A: active: 0.92 µM

Q: With C[n+]1ccc(-c2ccccc2)c2ccccc21 as the molecule, how does the Potency read?
A: inconclusive: 6.51 µM [cytotoxic, full curve, poor fit]

Q: With CCC(=NCc1ccc(F)cc1)c1c(O)n(C)c(=O)n(C)c1=O as the molecule, how does the Potency read?
A: inconclusive: 20.6 µM [cytotoxic, single point]

Q: For COc1ccc(OCC(=O)N2CCN(Cc3nc4cc([N+](=O)[O-])ccc4n3C)CC2)cc1, which “activity change, negative = cytotoxic” value is on record?
A: inactive: -1.49%

Q: For COC(=O)C1=C(c2ccccc2)C[C@@H]2CC[C@H]1N2C(=O)N1CCOCC1, which “activity change, negative = cytotoxic” value is on record?
A: inactive: 15.1%

Q: Which “activity change, negative = cytotoxic” value does the source give for CCOP(=S)(OCC)N1CCOCCOCCN(P(=S)(OCC)OCC)CCOCCOCC1 here?
A: inactive: -5.65%

Q: Which Potency does the source give for CC12CCC3C(CCC4(O)CC(O)CCC34C=O)C1(O)CCC2C1=CC(=O)OC1 (stereo not drawn) here?
A: active: 1.3 µM

Q: Which Potency does the source give for COC(=O)C1=C(c2cc3ccccc3o2)C[C@@H]2CC[C@H]1N2C(=O)NCc1cccc2ccccc12 here?
A: inconclusive: 25.9 µM [cytotoxic, single point]

Q: For NCCc1cc(O)c(O)cc1O, which Potency is on record?
A: inactive

Q: With Oc1c(Br)cc(Br)cc1Br as the molecule, how does the “activity change, negative = cytotoxic” value read?
A: inactive: 0%

Q: With CC1CN=C(Nc2ccc(F)c(Cl)c2)S1 (stereo not drawn) as the molecule, how does the Potency read?
A: inconclusive: 29.1 µM [rising, single point]

Q: For C1CNC2NCCNC2N1 (stereo not drawn), which “activity change, negative = cytotoxic” value is on record?
A: inactive: 15.4%
